Results on 30 molecules are retold here after the supplement of paper PMC10849652.

The chains behind the UniProt entries cited, without tags or fusion partners. Where a name states a change or a piece, a line headed by the entry shows the natural chain unless it says otherwise.
UniProt Q96PM9: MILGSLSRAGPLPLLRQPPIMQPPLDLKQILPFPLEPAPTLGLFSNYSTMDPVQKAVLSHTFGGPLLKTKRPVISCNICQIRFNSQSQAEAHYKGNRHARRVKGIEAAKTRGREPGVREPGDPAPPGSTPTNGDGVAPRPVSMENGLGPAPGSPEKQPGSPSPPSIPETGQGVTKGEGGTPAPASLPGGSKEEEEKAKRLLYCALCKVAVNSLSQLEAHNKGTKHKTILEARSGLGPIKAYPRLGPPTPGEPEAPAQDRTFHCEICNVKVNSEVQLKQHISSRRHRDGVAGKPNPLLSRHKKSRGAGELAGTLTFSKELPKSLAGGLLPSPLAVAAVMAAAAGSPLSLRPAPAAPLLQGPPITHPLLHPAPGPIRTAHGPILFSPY
UniProt Q96IQ9: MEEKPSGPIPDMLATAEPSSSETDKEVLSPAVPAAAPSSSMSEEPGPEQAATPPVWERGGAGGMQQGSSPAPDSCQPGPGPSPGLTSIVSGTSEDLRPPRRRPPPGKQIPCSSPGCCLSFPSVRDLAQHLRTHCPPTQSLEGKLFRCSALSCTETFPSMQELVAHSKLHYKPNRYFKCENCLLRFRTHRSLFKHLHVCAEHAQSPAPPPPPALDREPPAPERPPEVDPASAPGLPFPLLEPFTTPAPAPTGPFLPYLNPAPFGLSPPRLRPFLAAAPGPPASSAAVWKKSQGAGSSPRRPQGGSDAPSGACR

Some of the results follow. Residues, ends and D or L forms follow the SMILES beside them. *: point of attachment. Cbz = O=C(OCc1ccccc1)*

The first test concerns the target ZNF385A (UniProt Q96PM9). The experiment in a line: log2 fold change, soluble protein after heating vs DMSO (PISA); higher = thermal stabilisation; K562 cells, 10 uM, 30 min; active = over 0.2 and 3.5 SD of the protein, either way, in both replicates (recomputed). In a few lines:
(§1)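 Values are thermal stability changes relative to control samples and are taken from duplicates. They are stated as log2 fold changes. Before quantification by TMTpro 16plex LC-MS/MS with equalised channel sums, K562 cells at 2×10^6 cells/mL were treated with 10 μM compound for 30 min, heated in aliquots for 3 min across 48°C-58°C, pooled, extracted in PBS with 0.5% NP-40 at 4°C, and centrifuged at 21,000xg for 90 min to give the soluble supernatant.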
On to `NC(=O)c1cnc(N[C@@H]2CCCC[C@@H]2N)nc1Nc1cccc(-n2nccn2)c1`, for which the log2 fold change was inactive: 0.087. On the same count and under the same terms, to `C/C(=N\NC(=O)c1cccc(S(=O)(=O)N2CCOCC2)c1)c1cc(Cl)ccc1O` belongs inactive: -0.008; to `COC(=O)N[C@@H](C)CNc1nccc(-c2cn(C(C)C)nc2-c2cc(Cl)cc(NS(C)(=O)=O)c2F)n1` [encorafenib], inactive: -0.054. Still for that read-out and setting: to `Cn1cc(-c2ccc3nnc(C(F)(F)c4ccc5ncccc5c4)n3n2)cn1` belongs inactive: -0.023.

Turning to `Cc1ccc(C(=O)N(CCCN)[C@@H](c2nc3cc(Cl)ccc3c(=O)n2Cc2ccccc2)C(C)C)cc1` [ispinesib], the log2 fold change is inactive: -0.044. The same measure, in the same setting: to `CNCc1ccc(-c2[nH]c3cc(F)cc4c3c2CCNC4=O)cc1` [rucaparib] belongs inactive: 0.08. As for `c1cc(OCCN2CCCCC2)cc(-c2n[nH]c3ccc(-c4nnc[nH]4)cc23)c1`, the log2 fold change was inactive: -0.019. Same read-out and setting: to `O=C(CCCCCCNC(=O)c1cnc(N(c2ccccc2)c2ccccc2Cl)nc1)NO` [citarinostat] belongs inactive: -0.004. Still for that read-out and setting: under `CCCc1cc(C)[nH]c(=O)c1CNC(=O)c1cc(-c2ccnc(N3CCN(C)CC3)c2)cc2c1cnn2C(C)C` stands inactive: -0.158.

For `C[C@@H](N)c1ccc(C(=O)Nc2ccnc3[nH]ccc23)cc1`, the log2 fold change was inactive: 0.154. Same read-out and setting: under `O=C1NC(=NCc2cccs2)S/C1=C\c1ccc2ncccc2c1` stands inactive: -0.006; under `CC[C@H](C)n1cc(C)c2c(C(=O)NCc3c(C)cc(C)[nH]c3=O)cc(-c3ccc(N4CCNCC4)nc3)cc21`, inactive: -0.07; under `FC(F)(F)c1ccc(/C=C/c2nc(COc3ccc(CCCCn4ccnn4)cc3)co2)cc1` [mubritinib], inactive: -0.083. The same measure, in the same setting: to `CC(=O)c1cnc2ccc(-c3cc(Cl)c(O)c(Cl)c3)nc2c1N[C@H]1CC[C@H](CN(C)C)CC1` belongs inactive: -0.087; to `Cc1ccc(NC(=O)c2cccc(N(C)C)c2)cc1NC(=O)c1ccc(O)cc1`, inactive: -0.01; to `Cc1ccc(NC(=O)c2ccc(CN3CC[C@H](N(C)C)C3)c(C(F)(F)F)c2)cc1Nc1nccc(-c2cncnc2)n1` [bafetinib], inactive: 0.109. The same measure, in the same setting: under `CC(C)C[C@@H](C=O)NC(=O)[C@H](CC(C)C)NC(=O)[C@H](CC(C)C)NC(=O)OCc1ccccc1` (Cbz-Leu-Leu-Leu-aldehyde) stands inactive: 0.069. As to `Cc1nc(Nc2n[nH]c3c2CN(C(=O)N[C@H](CN(C)C)c2ccccc2)C3(C)C)c2sccc2n1`, the log2 fold change was inactive: -0.13. On the same count and under the same terms, to `Oc1cc(-c2nc(-c3ccccc3)[nH]c2-c2ccncc2)ccc1Cl` belongs inactive: 0.036; to `CC[C@@H]1C(=O)N(C)c2cnc(Nc3ccc(C(=O)NC4CCN(C)CC4)cc3OC)nc2N1C1CCCC1`, inactive: 0.146. The same measure, in the same setting: to `CC(C)(C)Cn1c(N)nc2ccc(-c3[nH]c(C(C)(C)C)nc3-c3ccc(F)cc3)nc21` [ralimetinib] belongs inactive: 0.162; to `O=C1c2ccccc2-c2n[nH]c3cccc1c23`, inactive: 0.115; to `Cc1ncc(-c2ccnc(Nc3ccc(S(C)(=O)=O)cc3)n2)n1C(C)C`, inactive: 0.024. Same read-out and setting: under `COc1cc(C(=O)O)ccc1NC(=O)[C@@H]1N[C@@H](CC(C)(C)C)[C@](C#N)(c2ccc(Cl)cc2F)[C@H]1c1cccc(Cl)c1F` [idasanutlin] stands inactive: 0.064; under `CO[C@H]1C[C@@H]2CC[C@@H](C)[C@@](O)(O2)C(=O)C(=O)N2CCCC[C@H]2C(=O)O[C@H]([C@H](C)C[C@@H]2CC[C@H](n3cnnn3)[C@H](OC)C2)CC(=O)[C@H](C)/C=C(\C)[C@@H](O)[C@@H](OC)C(=O)[C@H](C)C[C@H](C)/C=C/C=C/C=C/1C` [zotarolimus], inactive: 0.055; under `Cc1cn(-c2cc(NC(=O)c3ccc(C)c(Nc4nccc(-c5cccnc5)n4)c3)cc(C(F)(F)F)c2)cn1` [nilotinib], inactive: 0.147.

`COc1cc2ncnc(Nc3ccc(F)c(Cl)c3)c2cc1OCCCN1CCOCC1` [gefitinib]: the log2 fold change was inactive: -0.236. On the same count and under the same terms, under `O=C1NC(=O)/C(=C\c2ccc3nccnc3c2)S1` stands inactive: 0.048; under `NC1(c2ccc(-c3nc4ccn5c(=O)[nH]nc5c4cc3-c3ccccc3)cc2)CCC1`, inactive: 0.034; under `Cn1cc(-c2ccc3c(c2)CCN3C(=O)Cc2cccc(C(F)(F)F)c2)c2c(N)ncnc21`, inactive: -0.06.

The target of another test is ZNF414 isoform 2 (UniProt Q96IQ9). The description is as above. In a few lines: as §1
For `NC(=O)c1cnc(N[C@@H]2CCCC[C@@H]2N)nc1Nc1cccc(-n2nccn2)c1`, the log2 fold change was inactive: -0.191. On the same count and under the same terms, to `C/C(=N\NC(=O)c1cccc(S(=O)(=O)N2CCOCC2)c1)c1cc(Cl)ccc1O` belongs inactive: -0.008; to `COC(=O)N[C@@H](C)CNc1nccc(-c2cn(C(C)C)nc2-c2cc(Cl)cc(NS(C)(=O)=O)c2F)n1` [encorafenib], inactive: -0.2.

As to `Cn1cc(-c2ccc3nnc(C(F)(F)c4ccc5ncccc5c4)n3n2)cn1`, the log2 fold change is inactive: -0.174. On the same count and under the same terms, under `Cc1ccc(C(=O)N(CCCN)[C@@H](c2nc3cc(Cl)ccc3c(=O)n2Cc2ccccc2)C(C)C)cc1` [ispinesib] stands inactive: 0.322; under `CNCc1ccc(-c2[nH]c3cc(F)cc4c3c2CCNC4=O)cc1` [rucaparib], inactive: 0.043. The same measure, in the same setting: under `c1cc(OCCN2CCCCC2)cc(-c2n[nH]c3ccc(-c4nnc[nH]4)cc23)c1` stands inactive: -0.181. As for `O=C(CCCCCCNC(=O)c1cnc(N(c2ccccc2)c2ccccc2Cl)nc1)NO` [citarinostat], the log2 fold change is inactive: 0.063. The same measure, in the same setting: to `CCCc1cc(C)[nH]c(=O)c1CNC(=O)c1cc(-c2ccnc(N3CCN(C)CC3)c2)cc2c1cnn2C(C)C` belongs inactive: 0.043; to `C[C@@H](N)c1ccc(C(=O)Nc2ccnc3[nH]ccc23)cc1`, inactive: -0.157. On to `O=C1NC(=NCc2cccs2)S/C1=C\c1ccc2ncccc2c1`, for which the log2 fold change is inactive: -0.001. As for `FC(F)(F)c1ccc(/C=C/c2nc(COc3ccc(CCCCn4ccnn4)cc3)co2)cc1` [mubritinib], the log2 fold change is inactive: 0.102. The same measure, in the same setting: under `CC(=O)c1cnc2ccc(-c3cc(Cl)c(O)c(Cl)c3)nc2c1N[C@H]1CC[C@H](CN(C)C)CC1` stands inactive: 0.08; under `Cc1ccc(NC(=O)c2cccc(N(C)C)c2)cc1NC(=O)c1ccc(O)cc1`, inactive: 0.004. Still for that read-out and setting: to `Cc1ccc(NC(=O)c2ccc(CN3CC[C@H](N(C)C)C3)c(C(F)(F)F)c2)cc1Nc1nccc(-c2cncnc2)n1` [bafetinib] belongs inactive: -0.125.

Regarding `CC(C)C[C@@H](C=O)NC(=O)[C@H](CC(C)C)NC(=O)[C@H](CC(C)C)NC(=O)OCc1ccccc1` (Cbz-Leu-Leu-Leu-aldehyde), the log2 fold change is inactive: -0.198. On the same count and under the same terms, under `Oc1cc(-c2nc(-c3ccccc3)[nH]c2-c2ccncc2)ccc1Cl` stands inactive: 0.535.

With `CC[C@@H]1C(=O)N(C)c2cnc(Nc3ccc(C(=O)NC4CCN(C)CC4)cc3OC)nc2N1C1CCCC1`, the log2 fold change is inactive: 0.019. On the same count and under the same terms, to `CC(C)(C)Cn1c(N)nc2ccc(-c3[nH]c(C(C)(C)C)nc3-c3ccc(F)cc3)nc21` [ralimetinib] belongs inactive: 0.31. The same measure, in the same setting: to `O=C1c2ccccc2-c2n[nH]c3cccc1c23` belongs inactive: 0.013; to `COc1cc(C(=O)O)ccc1NC(=O)[C@@H]1N[C@@H](CC(C)(C)C)[C@](C#N)(c2ccc(Cl)cc2F)[C@H]1c1cccc(Cl)c1F` [idasanutlin], inactive: 0.061; to `CO[C@H]1C[C@@H]2CC[C@@H](C)[C@@](O)(O2)C(=O)C(=O)N2CCCC[C@H]2C(=O)O[C@H]([C@H](C)C[C@@H]2CC[C@H](n3cnnn3)[C@H](OC)C2)CC(=O)[C@H](C)/C=C(\C)[C@@H](O)[C@@H](OC)C(=O)[C@H](C)C[C@H](C)/C=C/C=C/C=C/1C` [zotarolimus], inactive: 0.173. Same read-out and setting: under `O=C1NC(=O)/C(=C\c2ccc3nccnc3c2)S1` stands inactive: -0.049; under `NC1(c2ccc(-c3nc4ccn5c(=O)[nH]nc5c4cc3-c3ccccc3)cc2)CCC1`, inactive: 0.06; under `Cn1cc(-c2ccc3c(c2)CCN3C(=O)Cc2cccc(C(F)(F)F)c2)c2c(N)ncnc21`, inactive: 0.069.
